Source: patent US8217085B2 (priority 2009, dated 2012)
Several values for one entry are separate records, joined by “and”; a condition that tells them apart may be missing. Equal entries are not always repeated. Where two headings read alike, the source gives them in different places. The source gives many values for each of these; only a part stands here.

System: ATCC strain 43300 Staphylococcus aureus
[1] = 5% MSM, 12 μg/ml oxacillin, 96 hours
[2] = 5% MSM, 12 μg/ml oxacillin, 120 hours
[3] = 5% MSM, 30 μg/ml oxacillin, 96 hours
[4] = 5% MSM, 30 μg/ml oxacillin, 120 hours
[5] = 5% MSM, 60 μg/ml oxacillin, 72 hours
[6] = 5% MSM, 60 μg/ml oxacillin, 96 hours
[7] = 5% MSM, 60 μg/ml oxacillin, 120 hours
[8] = 6% MSM, 12 μg/ml oxacillin, 96 hours
[9] = 6% MSM, 12 μg/ml oxacillin, 120 hours
[10] = 6% MSM, 30 μg/ml oxacillin, 96 hours
[11] = 6% MSM, 30 μg/ml oxacillin, 120 hours
[12] = 6% MSM, 60 μg/ml oxacillin, 72 hours
[13] = 6% MSM, 60 μg/ml oxacillin, 96 hours
[14] = 6% MSM, 60 μg/ml oxacillin, 120 hours
[15] = 7% MSM, 12 μg/ml oxacillin, 96 hours
[16] = 7% MSM, 12 μg/ml oxacillin, 120 hours
[17] = 7% MSM, 30 μg/ml oxacillin, 96 hours
[18] = 7% MSM, 30 μg/ml oxacillin, 120 hours
[19] = 7% MSM, 60 μg/ml oxacillin, 72 hours
[20] = 7% MSM, 60 μg/ml oxacillin, 96 hours
[21] = 7% MSM, 60 μg/ml oxacillin, 120 hours
[22] = 8% MSM, 12 μg/ml oxacillin, 96 hours
[23] = 8% MSM, 12 μg/ml oxacillin, 120 hours
[24] = 8% MSM, 30 μg/ml oxacillin, 96 hours
[25] = 8% MSM, 30 μg/ml oxacillin, 120 hours
[26] = 8% MSM, 60 μg/ml oxacillin, 72 hours
[27] = 8% MSM, 60 μg/ml oxacillin, 96 hours
[28] = 8% MSM, 60 μg/ml oxacillin, 120 hours
[29] = 9% MSM, 12 μg/ml oxacillin, 96 hours
[30] = 9% MSM, 12 μg/ml oxacillin, 120 hours
[31] = 9% MSM, 30 μg/ml oxacillin, 96 hours
[32] = 9% MSM, 30 μg/ml oxacillin, 120 hours
[33] = 9% MSM, 60 μg/ml oxacillin, 72 hours
[34] = 9% MSM, 60 μg/ml oxacillin, 96 hours
[35] = 9% MSM, 60 μg/ml oxacillin, 120 hours
[36] = 10% MSM, 12 μg/ml oxacillin, 96 hours
[37] = 10% MSM, 12 μg/ml oxacillin, 120 hours
[38] = 10% MSM, 30 μg/ml oxacillin, 96 hours

Q: Which results are given for `CS(C)(=O)=O` [MSM, methylsulfonylmethane]?
A: survival (5% MSM, 12 μg/ml oxacillin, 48 hours): 4.5 × 10^3 cfu/ml and 4.0 × 10^3 cfu/ml and 4.2 × 10^3 cfu/ml; survival (5% MSM, 12 μg/ml oxacillin, 72 hours): >3.3 × 10^5 cfu/ml; Average Log [1]: 5.5 Log; survival [1]: >3.3 × 10^5 cfu/ml; Average Log [2]: 5.5 Log; survival [2]: >3.3 × 10^5 cfu/ml; survival (5% MSM, 30 μg/ml oxacillin, 48 hours): 5.8 × 10^3 cfu/ml and 6.0 × 10^3 cfu/ml and 5.9 × 10^3 cfu/ml; survival (5% MSM, 30 μg/ml oxacillin, 72 hours): >3.3 × 10^5 cfu/ml; Average Log [3]: 5.5 Log; survival [3]: >3.3 × 10^5 cfu/ml; Average Log [4]: 5.5 Log; survival [4]: >3.3 × 10^5 cfu/ml; survival (5% MSM, 60 μg/ml oxacillin, 48 hours): 3.0 × 10^3 cfu/ml and 2.7 × 10^3 cfu/ml and 3.3 × 10^3 cfu/ml; Average Log [5]: 5.5 Log; survival [5]: >3.3 × 10^5 cfu/ml; Average Log [6]: 5.5 Log; survival [6]: >3.3 × 10^5 cfu/ml; Average Log [7]: 5.5 Log; survival [7]: >3.3 × 10^5 cfu/ml; survival (6% MSM, 12 μg/ml oxacillin, 48 hours): 1.7 × 10^3 cfu/ml and 1.4 × 10^3 cfu/ml; survival (6% MSM, 12 μg/ml oxacillin, 72 hours): >3.3 × 10^5 cfu/ml; Average Log [8]: 5.5 Log; survival [8]: >3.3 × 10^5 cfu/ml; Average Log [9]: 5.5 Log; survival [9]: >3.3 × 10^5 cfu/ml; survival (6% MSM, 30 μg/ml oxacillin, 48 hours): 5.5 × 10^3 cfu/ml and 5.9 × 10^3 cfu/ml; survival (6% MSM, 30 μg/ml oxacillin, 72 hours): >3.3 × 10^5 cfu/ml; Average Log [10]: 5.5 Log; survival [10]: >3.3 × 10^5 cfu/ml; Average Log [11]: 5.5 Log; survival [11]: >3.3 × 10^5 cfu/ml; survival (6% MSM, 60 μg/ml oxacillin, 48 hours): 6.0 × 10^1 cfu/ml and 5.0 × 10^1 cfu/ml; Average Log [12]: 2.8 Log; survival [12]: 6.5 × 10^2 cfu/ml and 6.4 × 10^2 cfu/ml and 6.1 × 10^2 cfu/ml; Average Log [13]: 3.6 Log; survival [13]: 4.4 × 10^3 cfu/ml and 4.5 × 10^3 cfu/ml; Average Log [14]: 4.5 Log; survival [14]: 3.7 × 10^4 cfu/ml and 3.4 × 10^4 cfu/ml and 2.4 × 10^4 cfu/ml; survival (7% MSM, 12 μg/ml oxacillin, 48 hours): 9.0 × 10^3 cfu/ml and 8.9 × 10^3 cfu/ml and 8.5 × 10^3 cfu/ml; survival (7% MSM, 12 μg/ml oxacillin, 72 hours): >3.3 × 10^5 cfu/ml; Average Log [15]: 5.5 Log; survival [15]: >3.3 × 10^5 cfu/ml; Average Log [16]: 5.5 Log; survival [16]: >3.3 × 10^5 cfu/ml; survival (7% MSM, 30 μg/ml oxacillin, 48 hours): 2.0 × 10^2 cfu/ml and 2.1 × 10^2 cfu/ml and 2.2 × 10^2 cfu/ml; survival (7% MSM, 30 μg/ml oxacillin, 72 hours): 3.6 × 10^4 cfu/ml and 3.2 × 10^4 cfu/ml; Average Log [17]: 5.5 Log; survival [17]: >3.3 × 10^5 cfu/ml; Average Log [18]: 5.5 Log; survival [18]: >3.3 × 10^5 cfu/ml; survival (7% MSM, 60 μg/ml oxacillin, 48 hours): 1.0 × 10^4 cfu/ml and 1.1 × 10^4 cfu/ml; Average Log [19]: 5.5 Log; survival [19]: >3.3 × 10^5 cfu/ml; Average Log [20]: 5.5 Log; survival [20]: >3.3 × 10^5 cfu/ml; Average Log [21]: 5.5 Log; survival [21]: >3.3 × 10^5 cfu/ml; survival (8% MSM, 12 μg/ml oxacillin, 48 hours): 4.9 × 10^3 cfu/ml and 5.4 × 10^3 cfu/ml; survival (8% MSM, 12 μg/ml oxacillin, 72 hours): >3.3 × 10^5 cfu/ml; Average Log [22]: 5.5 Log; survival [22]: >3.3 × 10^5 cfu/ml; Average Log [23]: 5.5 Log; survival [23]: >3.3 × 10^5 cfu/ml; survival (8% MSM, 30 μg/ml oxacillin, 48 hours): 1.23 × 10^3 cfu/ml and 1.24 × 10^3 cfu/ml and 1.20 × 10^3 cfu/ml; survival (8% MSM, 30 μg/ml oxacillin, 72 hours): >3.3 × 10^5 cfu/ml; Average Log [24]: 5.5 Log; survival [24]: >3.3 × 10^5 cfu/ml; Average Log [25]: 5.5 Log; survival [25]: >3.3 × 10^5 cfu/ml; survival (8% MSM, 60 μg/ml oxacillin, 48 hours): 7.5 × 10^2 cfu/ml and 7.3 × 10^2 cfu/ml and 7.0 × 10^2 cfu/ml; Average Log [26]: 5.5 Log; survival [26]: >3.3 × 10^5 cfu/ml; Average Log [27]: 5.5 Log; survival [27]: >3.3 × 10^5 cfu/ml; Average Log [28]: 5.5 Log; survival [28]: >3.3 × 10^5 cfu/ml; survival (9% MSM, 12 μg/ml oxacillin, 48 hours): 2.4 × 10^3 cfu/ml and 2.5 × 10^3 cfu/ml and 2.3 × 10^3 cfu/ml; survival (9% MSM, 12 μg/ml oxacillin, 72 hours): 4.7 × 10^4 cfu/ml and 4.2 × 10^4 cfu/ml and 4.5 × 10^4 cfu/ml; Average Log [29]: 5.5 Log; survival [29]: >3.3 × 10^5 cfu/ml; Average Log [30]: 5.5 Log; survival [30]: >3.3 × 10^5 cfu/ml; survival (9% MSM, 30 μg/ml oxacillin, 48 hours): 2.8 × 10^2 cfu/ml and 2.6 × 10^2 cfu/ml and 2.2 × 10^2 cfu/ml; survival (9% MSM, 30 μg/ml oxacillin, 72 hours): 8.8 × 10^2 cfu/ml and 8.1 × 10^2 cfu/ml and 8.5 × 10^2 cfu/ml; Average Log [31]: 4.0 Log; survival [31]: 1.0 × 10^4 cfu/ml and 1.02 × 10^4 cfu/ml and 1.01 × 10^4 cfu/ml; Average Log [32]: 5.5 Log; survival [32]: >3.3 × 10^5 cfu/ml; survival (9% MSM, 60 μg/ml oxacillin, 48 hours): 1.8 × 10^2 cfu/ml and 1.7 × 10^2 cfu/ml and 1.5 × 10^2 cfu/ml; Average Log [33]: 2.5 Log; survival [33]: 3.3 × 10^3 cfu/ml and 3.2 × 10^3 cfu/ml; Average Log [34]: 5.5 Log; survival [34]: >3.3 × 10^5 cfu/ml; Average Log [35]: 5.5 Log; survival [35]: >3.3 × 10^5 cfu/ml; survival (10% MSM, 12 μg/ml oxacillin, 48 hours): 5.4 × 10^2 cfu/ml; survival (10% MSM, 12 μg/ml oxacillin, 72 hours): 1.2 × 10^4 cfu/ml and 1.1 × 10^4 cfu/ml and 1.0 × 10^4 cfu/ml; Average Log [36]: 5.5 Log; survival [36]: >3.3 × 10^5 cfu/ml; Average Log [37]: 5.5 Log; survival [37]: >3.3 × 10^5 cfu/ml; survival (10% MSM, 30 μg/ml oxacillin, 48 hours): 4.3 × 10^2 cfu/ml and 4.0 × 10^2 cfu/ml; survival (10% MSM, 30 μg/ml oxacillin, 72 hours): 8.9 × 10^3 cfu/ml and 9.0 × 10^3 cfu/ml and 8.5 × 10^3 cfu/ml; Average Log [38]: 5.5 Log; survival [38]: >3.3 × 10^5 cfu/ml; Average Log (10% MSM, 30 μg/ml oxacillin, 120 hours): 5.5 Log
